The supplement of paper PMC10849652
The other results are listed elsewhere or left out.

By UniProt entry, the sequences of proteins in these tests, tags left out. Where a name states a change or a piece, a line headed by the entry shows the natural chain unless it says otherwise.
UniProt Q96GM5, whole entry, looked up: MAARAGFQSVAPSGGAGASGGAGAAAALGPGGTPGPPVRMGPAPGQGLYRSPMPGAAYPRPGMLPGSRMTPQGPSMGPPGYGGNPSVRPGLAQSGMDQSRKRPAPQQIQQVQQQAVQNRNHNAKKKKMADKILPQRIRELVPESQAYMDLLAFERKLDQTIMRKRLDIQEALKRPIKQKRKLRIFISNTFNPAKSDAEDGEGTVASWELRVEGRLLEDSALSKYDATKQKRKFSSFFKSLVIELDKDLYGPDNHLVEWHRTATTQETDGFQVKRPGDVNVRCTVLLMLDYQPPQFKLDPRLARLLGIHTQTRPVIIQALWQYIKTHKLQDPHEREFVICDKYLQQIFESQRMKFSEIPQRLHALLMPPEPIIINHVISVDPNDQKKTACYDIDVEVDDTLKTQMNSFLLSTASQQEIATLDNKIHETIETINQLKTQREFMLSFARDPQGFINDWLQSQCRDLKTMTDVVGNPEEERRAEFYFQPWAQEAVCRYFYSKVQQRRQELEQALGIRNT
UniProt O60271: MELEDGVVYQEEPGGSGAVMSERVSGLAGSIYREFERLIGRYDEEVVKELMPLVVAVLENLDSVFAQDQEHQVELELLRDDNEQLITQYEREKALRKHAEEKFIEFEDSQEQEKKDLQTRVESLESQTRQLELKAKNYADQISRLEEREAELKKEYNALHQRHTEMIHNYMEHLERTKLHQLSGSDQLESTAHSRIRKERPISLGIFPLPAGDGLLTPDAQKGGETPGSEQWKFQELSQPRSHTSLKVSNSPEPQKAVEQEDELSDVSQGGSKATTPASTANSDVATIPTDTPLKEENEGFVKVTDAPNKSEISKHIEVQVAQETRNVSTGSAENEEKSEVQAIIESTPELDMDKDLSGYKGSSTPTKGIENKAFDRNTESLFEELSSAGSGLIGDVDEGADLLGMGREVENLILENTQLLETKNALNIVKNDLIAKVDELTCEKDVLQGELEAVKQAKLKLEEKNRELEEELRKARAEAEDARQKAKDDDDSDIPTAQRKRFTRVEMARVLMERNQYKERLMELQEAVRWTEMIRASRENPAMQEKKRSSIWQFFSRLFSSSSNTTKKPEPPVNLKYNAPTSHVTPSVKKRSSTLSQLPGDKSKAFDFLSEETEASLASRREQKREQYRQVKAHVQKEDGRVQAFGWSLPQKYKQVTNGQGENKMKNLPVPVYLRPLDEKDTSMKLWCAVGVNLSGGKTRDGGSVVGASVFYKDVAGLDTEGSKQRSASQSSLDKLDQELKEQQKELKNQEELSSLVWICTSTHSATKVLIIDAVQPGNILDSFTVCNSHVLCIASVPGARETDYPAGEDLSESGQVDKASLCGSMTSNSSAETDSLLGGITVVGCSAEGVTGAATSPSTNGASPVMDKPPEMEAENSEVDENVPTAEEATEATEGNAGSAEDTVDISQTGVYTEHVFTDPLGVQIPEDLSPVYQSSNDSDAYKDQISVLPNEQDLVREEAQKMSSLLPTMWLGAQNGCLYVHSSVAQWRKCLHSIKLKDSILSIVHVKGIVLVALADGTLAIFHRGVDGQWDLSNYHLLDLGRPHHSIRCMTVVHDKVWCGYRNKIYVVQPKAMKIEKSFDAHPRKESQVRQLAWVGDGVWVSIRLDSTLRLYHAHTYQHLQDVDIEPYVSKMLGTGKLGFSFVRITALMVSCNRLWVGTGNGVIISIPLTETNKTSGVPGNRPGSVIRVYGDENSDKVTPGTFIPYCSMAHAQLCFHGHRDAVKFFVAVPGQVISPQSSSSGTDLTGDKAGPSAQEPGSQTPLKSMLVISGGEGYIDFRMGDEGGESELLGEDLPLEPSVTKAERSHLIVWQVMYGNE
UniProt P62318, whole entry, looked up: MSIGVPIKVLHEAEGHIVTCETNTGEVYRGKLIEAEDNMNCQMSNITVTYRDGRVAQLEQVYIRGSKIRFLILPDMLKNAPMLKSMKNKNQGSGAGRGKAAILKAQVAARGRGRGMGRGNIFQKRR
UniProt Q16637, whole entry, looked up: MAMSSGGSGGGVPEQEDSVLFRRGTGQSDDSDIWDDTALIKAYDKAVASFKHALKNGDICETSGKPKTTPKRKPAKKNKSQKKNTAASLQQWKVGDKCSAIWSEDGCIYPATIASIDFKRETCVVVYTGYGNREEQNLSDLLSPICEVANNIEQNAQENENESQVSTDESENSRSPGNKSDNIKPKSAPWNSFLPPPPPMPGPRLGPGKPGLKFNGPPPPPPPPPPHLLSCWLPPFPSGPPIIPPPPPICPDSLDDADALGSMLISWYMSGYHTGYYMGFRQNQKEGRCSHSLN
UniProt O00161: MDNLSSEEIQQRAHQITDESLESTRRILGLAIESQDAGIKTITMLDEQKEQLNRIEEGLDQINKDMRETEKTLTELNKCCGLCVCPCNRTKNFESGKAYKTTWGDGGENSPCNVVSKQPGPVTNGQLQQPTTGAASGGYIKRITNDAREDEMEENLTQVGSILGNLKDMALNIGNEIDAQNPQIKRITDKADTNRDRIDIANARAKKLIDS
UniProt Q9H4L7: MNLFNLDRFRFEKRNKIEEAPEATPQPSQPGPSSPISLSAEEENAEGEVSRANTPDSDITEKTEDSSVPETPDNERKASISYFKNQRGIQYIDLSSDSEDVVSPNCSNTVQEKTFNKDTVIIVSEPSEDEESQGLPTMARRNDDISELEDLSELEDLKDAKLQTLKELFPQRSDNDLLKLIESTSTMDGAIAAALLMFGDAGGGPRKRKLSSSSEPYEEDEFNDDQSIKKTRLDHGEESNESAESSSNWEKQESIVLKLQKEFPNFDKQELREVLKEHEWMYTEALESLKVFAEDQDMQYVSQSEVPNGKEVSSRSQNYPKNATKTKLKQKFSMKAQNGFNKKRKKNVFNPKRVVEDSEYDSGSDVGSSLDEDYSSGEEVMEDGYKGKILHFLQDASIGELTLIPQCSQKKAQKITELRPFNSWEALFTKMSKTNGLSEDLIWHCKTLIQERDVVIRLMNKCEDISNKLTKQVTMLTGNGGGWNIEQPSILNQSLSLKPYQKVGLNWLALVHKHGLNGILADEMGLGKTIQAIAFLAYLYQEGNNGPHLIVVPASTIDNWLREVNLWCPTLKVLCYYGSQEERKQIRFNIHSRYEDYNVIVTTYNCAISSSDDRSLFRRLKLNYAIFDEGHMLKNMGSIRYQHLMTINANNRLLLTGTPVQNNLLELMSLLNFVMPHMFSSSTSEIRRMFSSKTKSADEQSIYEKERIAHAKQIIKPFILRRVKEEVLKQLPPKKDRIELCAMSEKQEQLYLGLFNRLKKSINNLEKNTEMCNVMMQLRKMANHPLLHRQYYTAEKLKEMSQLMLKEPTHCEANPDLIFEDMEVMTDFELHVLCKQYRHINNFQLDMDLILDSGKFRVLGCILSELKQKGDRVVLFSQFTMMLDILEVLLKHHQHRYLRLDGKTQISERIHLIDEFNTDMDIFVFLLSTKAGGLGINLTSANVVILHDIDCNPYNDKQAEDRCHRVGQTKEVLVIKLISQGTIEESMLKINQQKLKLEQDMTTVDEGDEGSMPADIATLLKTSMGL
UniProt O95295: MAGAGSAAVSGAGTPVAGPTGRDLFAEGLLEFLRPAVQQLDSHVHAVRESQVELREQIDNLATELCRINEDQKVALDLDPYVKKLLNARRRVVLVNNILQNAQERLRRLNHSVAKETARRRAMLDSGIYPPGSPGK
UniProt O60493, whole entry, looked up: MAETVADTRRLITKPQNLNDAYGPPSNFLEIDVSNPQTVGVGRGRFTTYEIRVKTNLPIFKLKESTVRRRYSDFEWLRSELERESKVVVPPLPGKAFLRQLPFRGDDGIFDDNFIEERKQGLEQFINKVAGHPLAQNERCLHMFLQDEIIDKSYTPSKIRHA
UniProt P62306, whole entry, looked up: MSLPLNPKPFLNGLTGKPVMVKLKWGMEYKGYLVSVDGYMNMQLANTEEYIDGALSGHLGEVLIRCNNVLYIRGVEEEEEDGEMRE
UniProt Q96DI7: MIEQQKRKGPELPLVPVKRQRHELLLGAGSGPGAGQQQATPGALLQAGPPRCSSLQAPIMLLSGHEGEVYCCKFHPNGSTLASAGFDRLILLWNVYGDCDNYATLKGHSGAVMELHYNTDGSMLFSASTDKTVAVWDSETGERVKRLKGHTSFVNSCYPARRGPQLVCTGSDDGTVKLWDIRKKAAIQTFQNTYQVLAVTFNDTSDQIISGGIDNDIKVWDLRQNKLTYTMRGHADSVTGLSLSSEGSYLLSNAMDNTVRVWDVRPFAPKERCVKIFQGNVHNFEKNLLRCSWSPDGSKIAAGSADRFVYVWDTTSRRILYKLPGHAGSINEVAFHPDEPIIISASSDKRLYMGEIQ
UniProt Q15036: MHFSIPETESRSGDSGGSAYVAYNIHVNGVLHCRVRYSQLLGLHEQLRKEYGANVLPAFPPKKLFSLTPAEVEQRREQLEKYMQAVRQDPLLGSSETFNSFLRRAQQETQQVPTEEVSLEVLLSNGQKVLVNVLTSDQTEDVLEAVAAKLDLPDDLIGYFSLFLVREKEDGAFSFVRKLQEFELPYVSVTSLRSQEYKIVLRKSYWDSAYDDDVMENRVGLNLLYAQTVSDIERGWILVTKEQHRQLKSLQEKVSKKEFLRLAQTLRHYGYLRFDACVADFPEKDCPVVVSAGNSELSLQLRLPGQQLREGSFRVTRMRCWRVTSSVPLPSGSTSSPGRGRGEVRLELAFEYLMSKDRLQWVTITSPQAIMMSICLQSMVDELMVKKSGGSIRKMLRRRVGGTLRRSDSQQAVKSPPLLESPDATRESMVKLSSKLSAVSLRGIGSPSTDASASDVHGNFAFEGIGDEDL
UniProt Q92925, whole entry, looked up: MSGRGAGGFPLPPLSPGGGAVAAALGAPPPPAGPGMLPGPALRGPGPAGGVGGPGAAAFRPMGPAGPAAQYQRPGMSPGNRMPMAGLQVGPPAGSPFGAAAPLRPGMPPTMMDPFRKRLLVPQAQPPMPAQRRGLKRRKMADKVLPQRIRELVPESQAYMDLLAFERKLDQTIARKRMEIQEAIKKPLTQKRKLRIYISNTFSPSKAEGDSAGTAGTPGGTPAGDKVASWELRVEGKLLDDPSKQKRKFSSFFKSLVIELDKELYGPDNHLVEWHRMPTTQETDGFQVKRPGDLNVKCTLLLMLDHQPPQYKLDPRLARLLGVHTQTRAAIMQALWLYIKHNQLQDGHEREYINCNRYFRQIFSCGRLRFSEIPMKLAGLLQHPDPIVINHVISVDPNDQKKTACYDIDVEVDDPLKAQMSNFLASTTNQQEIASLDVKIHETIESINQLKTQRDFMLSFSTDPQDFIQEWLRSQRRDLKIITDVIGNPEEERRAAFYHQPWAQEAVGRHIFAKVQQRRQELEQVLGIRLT
UniProt Q9NZC9: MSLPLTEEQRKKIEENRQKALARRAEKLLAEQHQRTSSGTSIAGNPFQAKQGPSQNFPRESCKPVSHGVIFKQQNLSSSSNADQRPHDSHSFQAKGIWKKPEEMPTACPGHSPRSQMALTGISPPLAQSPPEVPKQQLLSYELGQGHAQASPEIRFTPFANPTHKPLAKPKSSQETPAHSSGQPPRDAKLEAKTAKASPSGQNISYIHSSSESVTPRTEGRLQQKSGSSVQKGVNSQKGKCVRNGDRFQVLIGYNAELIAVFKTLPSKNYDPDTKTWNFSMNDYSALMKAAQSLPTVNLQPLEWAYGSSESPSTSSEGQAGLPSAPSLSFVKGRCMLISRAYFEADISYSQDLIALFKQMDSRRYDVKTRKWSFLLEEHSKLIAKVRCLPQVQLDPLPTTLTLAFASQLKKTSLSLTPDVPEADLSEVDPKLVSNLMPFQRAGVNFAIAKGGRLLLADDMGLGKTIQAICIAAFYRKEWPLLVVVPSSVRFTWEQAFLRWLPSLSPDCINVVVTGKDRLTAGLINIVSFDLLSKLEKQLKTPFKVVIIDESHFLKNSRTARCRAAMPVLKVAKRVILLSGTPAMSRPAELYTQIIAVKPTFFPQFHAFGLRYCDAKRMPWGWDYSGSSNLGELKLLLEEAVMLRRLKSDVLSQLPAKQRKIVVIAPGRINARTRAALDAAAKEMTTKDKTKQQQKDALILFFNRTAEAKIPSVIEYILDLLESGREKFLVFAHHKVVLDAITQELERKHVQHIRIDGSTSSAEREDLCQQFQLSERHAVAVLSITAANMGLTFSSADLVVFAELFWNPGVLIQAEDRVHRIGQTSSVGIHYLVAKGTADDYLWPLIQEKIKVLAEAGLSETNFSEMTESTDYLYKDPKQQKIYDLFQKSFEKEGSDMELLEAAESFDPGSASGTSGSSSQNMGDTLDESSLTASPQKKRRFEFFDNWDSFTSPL
UniProt Q9Y5W9: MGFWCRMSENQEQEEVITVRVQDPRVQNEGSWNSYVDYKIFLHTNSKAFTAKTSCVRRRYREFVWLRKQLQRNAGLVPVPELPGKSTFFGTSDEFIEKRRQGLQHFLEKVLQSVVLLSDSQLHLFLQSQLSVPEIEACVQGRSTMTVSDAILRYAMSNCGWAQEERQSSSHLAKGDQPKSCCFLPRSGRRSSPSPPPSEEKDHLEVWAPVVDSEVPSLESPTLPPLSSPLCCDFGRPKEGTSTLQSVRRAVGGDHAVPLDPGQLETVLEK
UniProt P62304, whole entry, looked up: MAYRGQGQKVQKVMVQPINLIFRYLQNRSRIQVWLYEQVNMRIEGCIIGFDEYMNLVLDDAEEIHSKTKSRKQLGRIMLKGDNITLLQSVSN

The targets below were run with C1CCN(C1)C(=O)NC2=CC=CC(=C2)NC3=NC=C(C(=N3)NCCC4=CN=CN4)Br (assay: log2 fold change, soluble protein after heating vs DMSO (PISA); higher = thermal stabilisation; K562 lysate, 10 uM; active = over 0.2 and 3.5 SD of the protein, either way, in both replicates (recomputed)).
How it was run: (§1)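 K562 pellets were dounce-homogenised in PBS pH 7.4 containing 1 mM MgCl2, and the crude extract, at 1 mg/mL protein, was exposed to 10 μM compound for 30 min. Aliquots were heated for 3 min across 48°C-58°C, pooled, brought to 0.5% NP-40 at 4°C and spun at 21,000xg for 90 min, with the supernatant taken as soluble protein. TMTpro 16plex LC-MS/MS with equalised channel sums quantified that protein. Values are log-two fold changes in thermal stability relative to solvent controls, taken from duplicates.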

log2 fold change, inactive:
SNRPG (UniProt P62308) -0.008
SNX27 (UniProt Q96L92) -0.018
SMARCD1 (UniProt Q96GM5) -0.014
SNRNP70 (UniProt P08621) -0.01
SNX2 (UniProt O60749) 0
SMARCA4 (UniProt P51532) -0.003
SPAG9 (UniProt O60271) -0.02
SMCHD1 (UniProt A6NHR9) 0.019
SNRPD3 (UniProt P62318) 0.019
SMN1 (UniProt Q16637) -0.046
SNAP23 (UniProt O00161) 0.018
SOGA1 isoform 2 (UniProt O94964) 0.053
SORBS1 isoform 8 (UniProt Q9BX66) 0.045
SNTB2 (UniProt Q13425) -0.012
SMARCAD1 isoform 2 (UniProt Q9H4L7) -0.051
SNX15 (UniProt Q9NRS6) 0.01
SNAPIN (UniProt O95295) -0.033
SPAG7 (UniProt O75391) 0.028
SMC1B isoform 3 (UniProt Q8NDV3) 0.048
SNX3 (UniProt O60493) -0.006
SNRPF (UniProt P62306) -0.018
SNRNP40 (UniProt Q96DI7) 0.02
SNRNP200 (UniProt O75643) -0.005
SPARC (UniProt P09486) 0.002
SNRPC (UniProt P09234) -0.017
SNX17 (UniProt Q15036) -0.032
SMARCD2 (UniProt Q92925) -0.014
SMARCAL1 (UniProt Q9NZC9) -0.014
SMARCB1 (UniProt Q12824) -0.057
SNRNP48 (UniProt Q6IEG0) -0.015
SNRPC (UniProt Q5TAL2) -0.053
SNX11 (UniProt Q9Y5W9) -0.069
SNCA (UniProt P37840) -0.056
SMU1 (UniProt Q2TAY7) -0.018
SNRPB isoform 3 (UniProt P14678) 0.017
SNRPD2 (UniProt P62316) 0.004
SMARCC2 (UniProt Q8TAQ2) -0.019
SNX6, A0A0A0MRI2 0.024
SNRPE (UniProt P62304) -0.011

Each target was assayed with C1CN(CCC1(CC2=CC=C(C=C2)Cl)N)C3=NC=NC4=C3C=CN4 in the same assay as above.
How it was run: as §1

log2 fold change, inactive:
SNRPG (UniProt P62308) 0.038
SNX27 (UniProt Q96L92) -0.009
SMARCD1 (UniProt Q96GM5) 0.031
SNRNP70 (UniProt P08621) -0.027
SNX2 (UniProt O60749) -0.008
SMARCA4 (UniProt P51532) -0.024
SPAG9 (UniProt O60271) 0.004
SMCHD1 (UniProt A6NHR9) 0.047
SNRPD3 (UniProt P62318) 0.044
SMN1 (UniProt Q16637) -0.104
SNAP23 (UniProt O00161) 0.03
SOGA1 isoform 2 (UniProt O94964) 0.014
SORBS1 isoform 8 (UniProt Q9BX66) -0.014
SNTB2 (UniProt Q13425) -0.009
SMARCAD1 isoform 2 (UniProt Q9H4L7) 0.003
SNX15 (UniProt Q9NRS6) 0.013
SNAPIN (UniProt O95295) 0.061
SPAG7 (UniProt O75391) 0.015
SMC1B isoform 3 (UniProt Q8NDV3) 0.205
SNX3 (UniProt O60493) -0.024
SNRPF (UniProt P62306) 0.001
SNRNP40 (UniProt Q96DI7) -0.004
SNRNP200 (UniProt O75643) 0.009
SPARC (UniProt P09486) 0
SNRPC (UniProt P09234) 0.05
SNX17 (UniProt Q15036) 0.038
SMARCD2 (UniProt Q92925) -0.028
SMARCAL1 (UniProt Q9NZC9) 0.036
SMARCB1 (UniProt Q12824) 0.018
SNRNP48 (UniProt Q6IEG0) -0.079
SNRPC (UniProt Q5TAL2) 0.009
SNX11 (UniProt Q9Y5W9) 0.024
SNCA (UniProt P37840) -0.085
SMU1 (UniProt Q2TAY7) -0.031
SNRPB isoform 3 (UniProt P14678) -0.009
SNRPD2 (UniProt P62316) -0.008
SMARCC2 (UniProt Q8TAQ2) 0.003
SNX6, A0A0A0MRI2 -0.047
SNRPE (UniProt P62304) 0.067
